About 740 (0.23%) of roughly 320,000 compounds were called active. Inconclusive means that the source gave no clear call. Such entries were picked first, then a sample of the others. The call rests on the fitted dose curve; in most records, active means well fitted activation curve with a large enough effect; inconclusive means small, poorly fitted or top-dose-only effect; inactive means no such curve, though single readings can be large or run the other way. Potencies beside an inconclusive call are fits to weak or partial responses and may not hold up.
test: qHTS Assay for Small Molecule Inhibitors of Mitochondrial Division or Activators of Mitochondrial Fusion; further: nearly all actives have a fitted effect of over 45% in size;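 on growth rescue (activation): temperature-sensitive fusion mutants such as fzo1-1 at 37 °C on non-fermentable ethanol glycerol medium; % of control where 0% means no effect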; conditions: S. cerevisiae fusion-defective mutant growth rescue, CellTiterGlo 48 h; growth rescue (activation): at 46.1 µM (top of the series) unless noted
Outline: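 Growth-rescue viability read-out: after 48 h at the non-permissive 37C in glycerol/ethanol YPEG, yeast mitochondrial fusion mutants are measured by CellTiterGlo luminescence; compounds (23 nl pinned per well) restoring growth score as division inhibitors or fusion activators.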
Potency means the concentration at half of the fitted maximal effect.

SMILES	Potency	growth rescue (activation)
CN(CCOc1ccc(Cl)cc1)C(=O)c1cc(-c2ccco2)nc2ccccc12	inconclusive: 20 µM [activator, single point]	
CCOc1ccccc1NC(=O)CSc1nnc(-c2ccccn2)n1Cc1ccco1	inconclusive: 12.6 µM [activator, partial curve]	
CC(OC(=O)c1cccs1)C(=O)Nc1nc(-c2ccccc2)cs1 (configuration not stated)	inconclusive: 22.4 µM [activator, single point]	
CCc1cc2c(Nc3ccc(O)cc3)nc(C)nc2s1		inactive: -29.2%
COCCNC(=O)CSc1nc2nn(-c3ccccc3)c(=O)c-2c2n1CCCCC2		inactive: -0.135%
Cc1ccc(NCc2nnc(SCC(N)=O)n2CC2CCCO2)c(C)c1 (configuration not stated)		inactive: -3.35%
COc1ccc(Cn2nnnc2C(c2ccccc2)N2CCN(C3CCCC3)CC2)cc1 (configuration not stated)	inconclusive: 3.55 µM [activator, single point]	
Cc1ccc(-c2nc(CS(=O)CC(=O)NCCN(CC(C)C)CC(C)C)c(C)o2)cc1 (configuration not stated)	inconclusive: 6.31 µM [activator, single point]	
COc1ccccc1C1/C(=C(/O)c2ccc(C)cc2)C(=O)C(=O)N1CC(C)O (configuration not stated)		inactive: -0.228%
O=C(Nc1ccccc1N1CCCCC1)c1ccc([N+](=O)[O-])o1	active: 5.62 µM	
Cc1ccc(NC(=O)C/C(N)=N/OC(=O)c2ccccc2)cc1	inconclusive: 17.8 µM [activator, single point]	
O=C(Nc1cccc(F)c1)c1ccc(-c2ccccc2Cl)o1	inconclusive: 35.5 µM [activator, single point]	
COc1ccc(/C=C(/C#N)C(=O)Nc2ccccc2C)cc1C(=O)O	inconclusive: 5.62 µM [activator, single point]	
Fc1ccc(-n2cc(CNCCc3cccnc3)c(-c3ccccc3Cl)n2)cc1	inconclusive: 2.82 µM [activator, partial curve]	
CC(=O)c1ccc(OCC(=O)c2cc(C)n(-c3ccc4c(c3)OCO4)c2C)cc1	inconclusive: 25.1 µM [activator, single point]	
COc1ccc(CCNC(=O)c2ccc(-c3ccc([N+](=O)[O-])cc3Cl)o2)cc1OC	inconclusive: 31.6 µM [activator, single point]	
Cn1c(/C(C#N)=C/c2ccncc2)nc2ccccc21		inactive: -5.69%
Cc1ccc(S(=O)(=O)CCC(=O)NCc2ccccc2Cl)cc1	inconclusive: 31.6 µM [activator, single point]	
COc1ccc(CN(C(=O)c2ccco2)c2ccc(C)c(C)c2)cc1	inconclusive: 14.1 µM [activator, partial curve]	
CCN1C(=O)[C@@H]2[C@@H](c3ccc(-c4ccccc4)cc3)N3CCCC[C@@]3(C(=O)OC)[C@@H]2C1=O	inconclusive: 14.1 µM [activator, single point]	
Nc1nc2c(cnn2CCc2ccccc2)c2nc(-c3ccco3)nn12	inconclusive: 10.3 µM [activator, partial curve]	
Cc1ccc(-c2nc3cc(N)ccc3o2)c(C)c1	inconclusive: 14.1 µM [activator, partial curve]	
COc1ccc(CC(=O)N2CCC(Nc3nc4ccccc4n3Cc3ccc(F)cc3)CC2)cc1	inconclusive: 5.62 µM [activator, single point]	
NS(=O)(=O)c1ccc(NC(=O)CSc2ncnc3ccccc23)cc1	inconclusive: 22.4 µM [activator, partial curve]	

SMILES	Potency	growth rescue (activation)
S=C(c1ccc(-c2cc(Cl)ccc2Cl)o1)N1CCCCC1		inactive: -0.549%
CCCN1C(=O)/C(=C/c2c(N3CCNC(=O)C3CC(=O)OCC)nc3c(C)cccn3c2=O)SC1=S (configuration not stated)		inactive: 0.266%
CN(CC(=O)Nc1cccc(F)c1)C(=O)CCc1nc2ccccc2c(=O)[nH]1		inactive: -4.16%
CCCOC(=O)c1ccc(NC(=O)c2ccc(Br)o2)cc1	active: 22.4 µM	
COc1ccccc1Nc1nc(NCC(C)C)nc(N)c1[N+](=O)[O-]	inconclusive: 15.8 µM [activator, partial curve]	
Oc1c(Cl)cc(Cl)cc1/C=N/Nc1ncc(Br)cn1		inactive: -5.53%
CC1=Nc2cc(C(=O)NCc3ccco3)ccc2Sc2ccc(C)cc21	inconclusive: 20 µM [activator, single point]	
O=C(Nc1cc(Sc2ccccn2)cc([N+](=O)[O-])c1)c1cccc(Cl)c1	active: 15.8 µM	
O=C(c1cccs1)N1CCN=C1SCc1ccc(F)cc1		inactive: -3.32%
COc1cc(-c2cc(-c3ccc(F)cc3)nc(N)c2C#N)ccc1O	inconclusive: 11.2 µM [activator, partial curve]	
CCCNC(=S)N1CCN(C(c2ccccc2)c2ccccc2)CC1	inconclusive: 15.8 µM [activator, partial curve]	
CCOc1ccc(NC(=S)N2CCCC2)cc1		inactive: -7.39%
CC(CCc1ccccc1)NC(=O)c1ccc(C(=O)NC(C)CCc2ccccc2)cc1 (configuration not stated)		inactive: 0.964%
CCCc1nc(SCC(=O)N2CCCc3ccccc32)c2c(=O)n(C)c(=O)n(C)c2n1	inconclusive: 25.1 µM [activator, single point]	
CCC1(CC)Nc2ccccc2C(=O)N1c1ccc(OC)cc1		inactive: -0.798%
CCOc1ccc(-c2[nH]ncc2Oc2ccccc2OC)c(O)c1	inconclusive: 17.8 µM [activator, single point]	
Cc1ccc(/C=C(\CCC(=O)O)c2nc3ccccc3s2)cc1[N+](=O)[O-]		inactive: 8.38%
CC(=O)Oc1cc2c(C(C)=O)coc2c2ccccc12		inactive: 7.63%
O=C1ON=C(c2ccc([N+](=O)[O-])cc2)/C1=C/c1ccccc1O		inactive: -22.2%
COc1cccc(N(C(=O)Cc2cccs2)C(C(=O)NC2CCCC2)c2ccncc2)c1 (configuration not stated)		inactive: -4.38%
CC1CCN(c2ccc(C(=O)NCc3ccco3)cc2[N+](=O)[O-])CC1	inconclusive: 12.6 µM [activator, partial curve]	
Cc1csc(NC(=O)c2ccc(COc3ccccc3)o2)n1		inactive: 17.6%
COc1cc(OC)cc(C(=O)N[C@@H](CCSC)c2nc3ccccc3[nH]2)c1	inconclusive: 8.91 µM [activator, partial curve]	

Three compounds drawn at random from those above:
SMILES	Potency	growth rescue (activation)
O=C(Nc1cc(Sc2ccccn2)cc([N+](=O)[O-])c1)c1cccc(Cl)c1	active: 15.8 µM	
COc1cccc(N(C(=O)Cc2cccs2)C(C(=O)NC2CCCC2)c2ccncc2)c1 (configuration not stated)		inactive: -4.38%
CC1CCN(c2ccc(C(=O)NCc3ccco3)cc2[N+](=O)[O-])CC1	inconclusive: 12.6 µM [activator, partial curve]	
